Reference: PubChem BioAssay AID1259254 (NCATS, 2017)
Here is one part, drawn at random, of about 59,000 reagents. About 1,550 of all reagents (2.6%) count as active. 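G2 share is only a proxy for re-replication; each gene was hit by three separate siRNAs, and active genes were retested.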 Raw values are not corrected between plates. The numbers tell different reagents against one gene apart. Not stated in the record: the amount of reagent.

- Test: 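Gene knock-downs that lead to re-replication, shown by excess G2 DNA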 (primary screen)
- Cell system: human HCT116 colorectal cancer cells
- Reagents: single siRNA against human genes
- Timing: 3 days
- Measured: 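Nuclei stained with Hoechst and imaged; cell-cycle phase assigned by DNA content; G2 share scaled per plate, non-targeting siRNA 0%, GMNN siRNA 100%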
- Direction: G2 robust z-score and G2 cells, % of GMNN control: higher = more G2 cells, more excess DNA replication; raw share of cells in G2: higher = larger share of cells with G2 DNA content
- Rule for the call: 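Active siRNAs have a G2 robust z of 5 or more median absolute deviations over the median, which in these data means about 38% or higher of GMNN control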

gene knocked down | reagent no. | G2 robust z-score | G2 cells, % of GMNN control | raw share of cells in G2 (%) | call
RAD9A (RAD9 checkpoint clamp component A) | 1 | 4.77 | 36.5 | 16.3 | inactive
RAD9A (RAD9 checkpoint clamp component A) | 2 | 1.52 | 13.7 | 9.68 | inactive
RAD9A (RAD9 checkpoint clamp component A) | 3 | -1.39 | -6.82 | 2.08 | inactive
CTPS1 (CTP synthase 1) | 1 | 0.691 | 7.83 | 7.76 | inactive
CTPS1 (CTP synthase 1) | 2 | -1.3 | -6.15 | 1.98 | inactive
CTPS1 (CTP synthase 1) | 3 | 0.399 | 5.78 | 7.1 | inactive
DNAJB4 (DnaJ heat shock protein family (Hsp40) member B4) | 1 | -0.182 | 1.69 | 4.09 | inactive
DNAJB4 (DnaJ heat shock protein family (Hsp40) member B4) | 2 | 0.458 | 6.19 | 8.75 | inactive
DNAJB4 (DnaJ heat shock protein family (Hsp40) member B4) | 3 | 1.86 | 16 | 10.1 | inactive
PLA2R1 (phospholipase A2 receptor 1) | 1 | -0.213 | 1.47 | 6.96 | inactive
PLA2R1 (phospholipase A2 receptor 1) | 2 | -0.832 | -2.89 | 3.19 | inactive
PLA2R1 (phospholipase A2 receptor 1) | 3 | -0.631 | -1.47 | 3.36 | inactive
RPS13 (ribosomal protein S13) | 1 | 4.9 | 37.4 | 20.9 | inactive
RPS13 (ribosomal protein S13) | 2 | 3.17 | 25.3 | 14.2 | inactive
RPS13 (ribosomal protein S13) | 3 | 4.11 | 31.9 | 14.9 | inactive
RAPGEFL1 (Rap guanine nucleotide exchange factor like 1) | 1 | 1.16 | 11.1 | 11 | inactive
RAPGEFL1 (Rap guanine nucleotide exchange factor like 1) | 2 | -1.19 | -5.4 | 2.25 | inactive
RAPGEFL1 (Rap guanine nucleotide exchange factor like 1) | 3 | 0.0622 | 3.41 | 5.11 | inactive
TAS1R2 (taste 1 receptor member 2) | 1 | 1.75 | 15.3 | 10.8 | inactive
TAS1R2 (taste 1 receptor member 2) | 2 | -0.741 | -2.25 | 3.32 | inactive
TAS1R2 (taste 1 receptor member 2) | 3 | -0.475 | -0.377 | 2.27 | inactive
LINC00467 (long independently transcribed non-coding RNA 467) | 1 | -0.728 | -2.15 | 3.39 | inactive
LINC00467 (long independently transcribed non-coding RNA 467) | 2 | -0.273 | 1.05 | 3.77 | inactive
LINC00467 (long independently transcribed non-coding RNA 467) | 3 | 0.521 | 6.64 | 4.42 | inactive
GPC1 (glypican 1) | 1 | -1.16 | -5.16 | 2.88 | inactive
GPC1 (glypican 1) | 2 | -0.0985 | 2.27 | 4.92 | inactive
GPC1 (glypican 1) | 3 | 0.0643 | 3.42 | 4.86 | inactive
ITSN1 (intersectin 1) | 1 | -0.261 | 1.13 | 6.06 | inactive
ITSN1 (intersectin 1) | 2 | -0.444 | -0.159 | 4.49 | inactive
ITSN1 (intersectin 1) | 3 | -0.74 | -2.24 | 3.22 | inactive
P3H3 (prolyl 3-hydroxylase 3) | 1 | -0.594 | -1.22 | 3.12 | inactive
P3H3 (prolyl 3-hydroxylase 3) | 2 | 1.27 | 11.9 | 11.3 | inactive
P3H3 (prolyl 3-hydroxylase 3) | 3 | 1.56 | 13.9 | 9.18 | inactive
SLC25A6 | 1 | -1.34 | -6.44 | 2.53 | inactive
SLC25A6 | 2 | 1.72 | 15 | 9.59 | inactive
SLC25A6 | 3 | 1.11 | 10.8 | 8.92 | inactive
DBH (dopamine beta-hydroxylase) | 1 | 4.73 | 36.3 | 16.6 | inactive
DBH (dopamine beta-hydroxylase) | 2 | 2.04 | 17.3 | 11.3 | inactive
DBH (dopamine beta-hydroxylase) | 3 | 3.1 | 24.8 | 13.8 | inactive
PNMA6A (PNMA family member 6A) | 1 | 0.102 | 3.68 | 5.65 | inactive
PNMA6A (PNMA family member 6A) | 2 | -0.0708 | 2.47 | 3.77 | inactive
PNMA6A (PNMA family member 6A) | 3 | 0.419 | 5.92 | 4.8 | inactive
TM4SF20 (transmembrane 4 L six family member 20) | 1 | 0.952 | 9.67 | 8.46 | inactive
TM4SF20 (transmembrane 4 L six family member 20) | 2 | -0.679 | -1.81 | 3.51 | inactive
TM4SF20 (transmembrane 4 L six family member 20) | 3 | 1.63 | 14.4 | 6.32 | inactive
TMEM106B (transmembrane protein 106B) | 1 | -1.28 | -6.07 | 1.43 | inactive
TMEM106B (transmembrane protein 106B) | 2 | -0.336 | 0.606 | 4.53 | inactive
TMEM106B (transmembrane protein 106B) | 3 | 0.185 | 4.27 | 4.6 | inactive

Targets above whose gene name begins with C or c:
gene knocked down | reagent no. | G2 robust z-score | G2 cells, % of GMNN control | raw share of cells in G2 (%) | call
CTPS1 (CTP synthase 1) | 1 | 0.691 | 7.83 | 7.76 | inactive
CTPS1 (CTP synthase 1) | 2 | -1.3 | -6.15 | 1.98 | inactive
CTPS1 (CTP synthase 1) | 3 | 0.399 | 5.78 | 7.1 | inactive

The results go on.
gene knocked down | reagent no. | G2 robust z-score | G2 cells, % of GMNN control | raw share of cells in G2 (%) | call
KCND2 (potassium voltage-gated channel subfamily D member 2) | 1 | -0.762 | -2.4 | 4.42 | inactive
KCND2 (potassium voltage-gated channel subfamily D member 2) | 2 | -0.28 | 0.995 | 5.12 | inactive
KCND2 (potassium voltage-gated channel subfamily D member 2) | 3 | -0.653 | -1.63 | 3.74 | inactive
PRKRIP1 (PRKR interacting protein 1) | 1 | -0.453 | -0.216 | 4.35 | inactive
PRKRIP1 (PRKR interacting protein 1) | 2 | -0.479 | -0.402 | 4.13 | inactive
PRKRIP1 (PRKR interacting protein 1) | 3 | 3.16 | 25.2 | 9.27 | inactive
UEVLD (UEV and lactate/malate dehyrogenase domains) | 1 | -1.4 | -6.9 | 1.97 | inactive
UEVLD (UEV and lactate/malate dehyrogenase domains) | 2 | -0.709 | -2.02 | 3.49 | inactive
UEVLD (UEV and lactate/malate dehyrogenase domains) | 3 | -1.44 | -7.15 | 3.3 | inactive
CLCA2 (chloride channel accessory 2) | 1 | -1.1 | -4.8 | 3.54 | inactive
CLCA2 (chloride channel accessory 2) | 2 | -0.54 | -0.834 | 4.5 | inactive
CLCA2 (chloride channel accessory 2) | 3 | 0.157 | 4.07 | 5.97 | inactive
USP48 (ubiquitin specific peptidase 48) | 1 | -1.02 | -4.18 | 3.83 | inactive
USP48 (ubiquitin specific peptidase 48) | 2 | -0.00979 | 2.9 | 5.43 | inactive
USP48 (ubiquitin specific peptidase 48) | 3 | -1.07 | -4.55 | 2.57 | inactive
TFPT (TCF3 fusion partner) | 1 | -0.849 | -3.01 | 2.3 | inactive
TFPT (TCF3 fusion partner) | 2 | 0.19 | 4.3 | 5.5 | inactive
TFPT (TCF3 fusion partner) | 3 | 0.219 | 4.51 | 6.25 | inactive
NOD1 (nucleotide binding oligomerization domain containing 1) | 1 | 0.279 | 4.93 | 8.42 | inactive
NOD1 (nucleotide binding oligomerization domain containing 1) | 2 | 2.14 | 18 | 9.66 | inactive
NOD1 (nucleotide binding oligomerization domain containing 1) | 3 | -0.657 | -1.65 | 4.98 | inactive
MIR924HG (MIR924 host gene) | 1 | -0.723 | -2.12 | 2.37 | inactive
MIR924HG (MIR924 host gene) | 2 | 0.144 | 3.98 | 5.28 | inactive
MIR924HG (MIR924 host gene) | 3 | -0.254 | 1.18 | 3.66 | inactive
GP5 (glycoprotein V platelet) | 1 | 0.719 | 8.03 | 6.52 | inactive
GP5 (glycoprotein V platelet) | 2 | -1.14 | -5.06 | 3.34 | inactive
GP5 (glycoprotein V platelet) | 3 | 1.68 | 14.8 | 10.6 | inactive
PLCD1 (phospholipase C delta 1) | 1 | -0.277 | 1.02 | 5.13 | inactive
PLCD1 (phospholipase C delta 1) | 2 | 1.23 | 11.6 | 7.81 | inactive
PLCD1 (phospholipase C delta 1) | 3 | 0.0722 | 3.48 | 4.54 | inactive
VARS2 (valyl-tRNA synthetase 2, mitochondrial) | 1 | -0.86 | -3.08 | 3.26 | inactive
VARS2 (valyl-tRNA synthetase 2, mitochondrial) | 2 | 0.748 | 8.23 | 7.22 | inactive
VARS2 (valyl-tRNA synthetase 2, mitochondrial) | 3 | -1.32 | -6.3 | 3.04 | inactive
ATF3 (activating transcription factor 3) | 1 | 1.83 | 15.8 | 10.7 | inactive
ATF3 (activating transcription factor 3) | 2 | 0.0123 | 3.05 | 5.13 | inactive
ATF3 (activating transcription factor 3) | 3 | -0.687 | -1.87 | 4.08 | inactive
SEC63 (SEC63 protein translocation regulator) | 1 | 0.0243 | 3.14 | 4.57 | inactive
SEC63 (SEC63 protein translocation regulator) | 2 | 0.774 | 8.41 | 9.73 | inactive
SEC63 (SEC63 protein translocation regulator) | 3 | 0.353 | 5.45 | 5.62 | inactive
